PubChem BioAssay AID1671190 (National Center for Advancing Translational Sciences (NCATS), 2021)
Screen size: about 580,000 compounds; about 6,100 (1.1%) were called active. This list was built around the results that the source calls inconclusive (neither active nor inactive); the mix of calls is not that of the screen. The call rests on the fitted dose curve; in most records, active means well fitted inhibition curve with a large enough effect; inconclusive means small, poorly fitted or top-dose-only effect, or another doubt; inactive means no such curve, though single readings can be large or run the other way. Potencies of inconclusive entries are doubtful fits and often do not repeat.
On the % scale 0 is the no-effect control and ±100 the full control effect; potency means the concentration at half of the fitted maximal effect.

By UniProt entry, the sequences of proteins in these tests, tags left out. Where a name states a change or a piece, a line headed by the entry shows the natural chain unless it says otherwise.
UniProt P18054: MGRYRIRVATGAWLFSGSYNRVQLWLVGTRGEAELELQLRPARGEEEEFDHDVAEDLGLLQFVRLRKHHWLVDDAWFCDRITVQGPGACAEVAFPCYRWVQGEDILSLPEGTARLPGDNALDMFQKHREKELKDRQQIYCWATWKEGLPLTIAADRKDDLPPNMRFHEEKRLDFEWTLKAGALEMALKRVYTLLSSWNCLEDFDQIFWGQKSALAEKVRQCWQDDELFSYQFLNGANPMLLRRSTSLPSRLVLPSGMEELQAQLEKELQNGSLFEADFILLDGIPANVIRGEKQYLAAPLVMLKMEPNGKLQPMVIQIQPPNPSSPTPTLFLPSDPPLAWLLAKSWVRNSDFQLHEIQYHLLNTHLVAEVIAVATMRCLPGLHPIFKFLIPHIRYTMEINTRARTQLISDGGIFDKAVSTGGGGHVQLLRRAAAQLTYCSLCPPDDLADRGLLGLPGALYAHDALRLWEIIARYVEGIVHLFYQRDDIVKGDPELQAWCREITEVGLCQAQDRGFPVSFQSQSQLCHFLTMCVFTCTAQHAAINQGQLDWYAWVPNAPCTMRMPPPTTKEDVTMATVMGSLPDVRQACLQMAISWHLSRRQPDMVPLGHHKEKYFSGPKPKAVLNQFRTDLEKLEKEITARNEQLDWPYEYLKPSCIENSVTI

What follows are compounds tested against Polyunsaturated fatty acid lipoxygenase ALOX12 (Homo sapiens) (UniProt P18054) (assay: Primary qHTS assay for inhibitors of human arachidonate 12S-lipoxygenase (ALOX12): Round 2). Conditions: purified 12hLO, xylenol orange hydroperoxide absorbance; activity change, negative = inhibition: at 108 µM (top of the series) unless noted.
How it was run: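 Purified human 12hLO (150 nM final) in 25 mM Hepes, 0.01% Triton X-100, pH 7.0 was preincubated 15 min at room temperature with compound. Then 40 uM arachidonic acid was added, 30 min. Hydroperoxide was read by Fe-XO absorbance ratio 573/405 nm.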
For Cn1c(SCC(=O)Nc2nccs2)nnc1-c1ccncc1, the Potency was inconclusive: 31.6 µM [inhibitor, single point]. C/C=C/c1cccc(-c2nc(C(=O)NC3CCCC3)cc3c2[C@@H](CCO)N(S(=O)C(C)(C)C)C3)c1 (some centres not stated) was tested, and the Potency was inconclusive: 31.6 µM [inhibitor, partial curve]. Nc1ccc(S(N)(=O)=O)cc1 was tested, and the activity change, negative = inhibition was inconclusive: -37.9% [inhibitor] [at 57.4 µM]. In the case of CCCc1ccc(C(NC(=O)Cn2c(=O)c3c(ncn3C)n(C)c2=O)C(C)C)cc1 (configuration not stated), the Potency is reported as inconclusive: 50.1 µM [inhibitor, partial curve, poor fit]. For N#CC1=C(SCC(=O)Nc2ccc(Br)cc2)NC(=O)CC1c1ccc2c(c1)OCO2 (configuration not stated), the “activity change, negative = inhibition” value was inactive: 10.6%. For Cn1c(=O)c(-c2ccc(Cl)cc2)nc2cnc(N3CCNCC3)nc21, the Potency was inconclusive: 35.5 µM [inhibitor, partial curve, poor fit]. For O=C(c1ccc(F)c(Cl)c1)N1CCC(n2cc(-c3nc(-c4ccccc4)no3)nn2)CC1, the Potency was inconclusive: 56.2 µM [inhibitor, partial curve, poor fit]. In the case of Cc1ccc(CSCC(=O)OCC(=O)c2ccc(-c3ccccc3)cc2)cc1, the Potency is reported as inconclusive: 79.4 µM [inhibitor, partial curve, poor fit]. For CC1(C)Cc2c(sc(NC(=O)COc3ccc(Cl)cc3)c2C(N)=O)C(C)(C)N1, the “activity change, negative = inhibition” value was inactive: 3.95%. With O=C(NC(=S)NC1CCS(=O)(=O)C1)c1cccs1 (configuration not stated) the Potency was inconclusive: 35.5 µM [inhibitor, partial curve, poor fit]. For Cc1noc(-c2ccc(OC3CN(C(=O)Cc4ccsc4)C3)cc2)n1, the Potency was inconclusive: 50.1 µM [inhibitor, partial curve, poor fit]. In the case of COc1ccc(C(=O)OC2=C(C(=O)c3ccccc3)N(C)S(=O)(=O)c3ccccc32)cc1OC, the “activity change, negative = inhibition” value is reported as inactive: -14.5%. In the case of CSc1nncc(-c2ccc(F)cc2)n1, the Potency is reported as inconclusive: 39.8 µM [inhibitor, partial curve, poor fit]. In the case of COc1cccc(CNc2nc3cc(-c4cscc4C)sc3c(=O)n2C)c1, the Potency is reported as inconclusive: 89.1 µM [inhibitor, partial curve, poor fit]. With Cc1ccc(/C=N/NC(=O)CSc2nnc(-c3ccc(Cl)cc3)n2-c2ccccc2)o1 the Potency was inconclusive: 31.6 µM [inhibitor, partial curve, poor fit]. For Cc1ccc(Nc2nc(CSc3nnnn3C3CC3)cs2)cc1C, the Potency was inconclusive: 28.2 µM [inhibitor, single point]. In the case of CCCc1cc(N2CCOCC2)n2nc(C)c(-c3ccccc3)c2n1, the Potency is reported as inconclusive: 112 µM [inhibitor, single point].
